Results taken from PubChem BioAssay AID463183 (Sanford-Burnham Center for Chemical Genomics, 2010).
Some of the results follow. Further columns of the screen follow, without active or inactive calls. Most of these compounds were active or inconclusive in the main read-out, so they are no random draw.

Assay: hepatocyte lipid droplet accumulation inhibitors, confirmation, imaging, AML12 mouse hepatocytes, single concentration, high-content (AID 463183);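 note: cells counted after overnight compound exposure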
Conditions: BODIPY lipid droplet imaging, measured here: cell count, cytotoxicity, at 5.2 µM, droplets induced with 100 µM oleic acid

Row | SMILES | cell count [cells]
1 | CCOc1ccc(CCNC(=O)c2cccs2)cc1OCC | 1550
2 | O=C(N/N=C/c1cn(-c2ccccc2)nc1-c1cc2ccccc2o1)c1ccccc1Br | 1670
3 | Cc1ccc(N2C(N)=C(C#N)C(c3cc(CN4CCOCC4)cs3)C3=C2CC(C)(C)CC3=O)cc1 (centres undefined) | 1630
4 | COc1ccc(/C=C(/NC(=O)c2cccs2)C(=O)Nc2ccc(C)cc2)cc1OC | 1610
5 | COc1ccc(NC(=O)CSc2nc3ccccc3nc2N2CCCC2)cc1Cl | 1610
6 | CCOc1ccccc1NC(=O)N1CCCC1C(=O)Nc1ccc(-n2cnnn2)c(C)c1 (centres undefined) | 1660
7 | Cc1ccc(NC(=O)CSc2nnc(C)c(=O)n2N)cc1Cl | 1650
8 | Cc1cccc(NC(=O)CSc2nnc(C)c(=O)n2N)c1 | 1570
9 | Cc1cc(C(=O)OC(C)C(=O)Nc2nc(-c3ccccc3)cs2)c(C)o1 (centres undefined) | 1690
10 | Cc1cc(C)nc(NCCO)n1 | 1630
11 | CCOc1ccccc1NC(=O)CSCC(=O)Nc1ccccc1 | 1590
12 | COc1ccccc1CNS(=O)(=O)c1ccc2c(c1)CC(C)N2C(=O)C1CC1 (centres undefined) | 1600
13 | Cc1cc(C)n2nc(C(=O)N/N=C/c3c4ccccc4cc4ccccc34)nc2n1 | 1550
14 | Cc1cc(C)n(-c2nc(N(c3ccccc3)c3ccccc3)nc(-n3nc(C)cc3C)n2)n1 | 1250
15 | Cc1cccc(NC(=O)c2cccc(OC(=S)N3CCOCC3)c2)c1 | 1560
16 | CCCOc1ccc(C(=O)OCC(=O)NCCc2ccc(OCC)c(OCC)c2)cc1OC | 1640
17 | Cc1cc(C)c(C(=O)NC2CCCc3c2cnn3-c2cccc(C)c2C)o1 (centres undefined) | 1620
18 | CCOc1ccc2nc(-c3ccccc3)nc(SCC(=O)Nc3ncc(C)s3)c2c1 | 1550
19 | Cc1cc(C(=O)N[C@@H](c2ccccc2)[C@]2(C)C[C@H]2[C@@H](C)C(=O)Nc2ccc3ccccc3c2)no1 | 1600
20 | O=C(CSCC(=O)N1CCCCC1)Nc1nc(-c2ccccc2)c(-c2ccccc2)s1 | 1590

Row | SMILES | cell count [cells]
21 | CCOc1ccccc1N1CCN(C(=O)NCc2ccc(C)cc2)CC1 | 1590
22 | CCn1cc([N+](=O)[O-])c(C(=O)N2N=C(c3ccc4ccccc4c3)CC2c2cc(Br)ccc2O)n1 (centres undefined) | 1620
23 | Cc1c(C(=O)O)sc2nc3n(c(=O)c12)CCC(C)CC3 (centres undefined) | 1650
24 | CCOc1ccc(CCNC(=O)CSc2cc(=O)n(C)c3ccccc23)cc1OCC | 1550
25 | CCOc1ccc(CCNC(=O)C2CCN(S(=O)(=O)N3CC(C)CC(C)C3)CC2)cc1OCC (centres undefined) | 1550
26 | O=C1/C(=C/c2ccc([N+](=O)[O-])cc2)CCC1C1CCCC1 (centres undefined) | 1660
27 | CCC(C)(C)NC(=O)C(c1ccc(OC)cc1)N(Cc1cccs1)C(=O)CCC(=O)Nc1cc(C)on1 (centres undefined) | 1590
28 | CCOc1ccc(CCNC(=O)CCOc2cc(C)ccc2C)cc1OCC | 1560
29 | COc1cccc(CNC(=O)C2CCCN(S(=O)(=O)c3c(C)noc3/C=C/N(C)C)C2)c1 (centres undefined) | 1550
30 | CCOc1ccc(CCNC(=O)CCC(=O)N2CCOc3ccccc32)cc1OCC | 1580
31 | COC(=O)/C(=C\c1ccc2c(c1)c1ccccc1n2C)NC(=O)c1ccccc1 | 1540
32 | CCOc1ccc(NS(=O)(=O)c2ccc(C(=O)N3CCC3)cc2)cc1 | 1640
33 | CCOc1ccc2c(c1)-c1c(ssc1=S)C(C)(C)N2C(=O)c1ccco1 | 1630
34 | CC(=O)Nc1cccc(OCC(=O)NC(C)c2ccc3ccccc3c2)c1 (centres undefined) | 1550
35 | Cc1cc2c(cc1S(=O)(=O)Nc1cccc(C)c1C)n(C)c(=O)c(=O)n2C | 1640
36 | NC(=O)CC(NC(=O)Cc1cccc2ccccc12)c1ccc(N2CCN(c3ccc(F)cc3)CC2)c([N+](=O)[O-])c1 (centres undefined) | 1600
37 | CCOc1ccc(C(C)NC(=O)Cc2ccccc2F)cc1OCC (centres undefined) | 1540
38 | CSc1c(CC(=O)Nc2ccccc2C(F)(F)F)n(Cc2ccccc2)c2ccccc12 | 1500
39 | CCOc1cc(CNC(=O)CCCn2c(=O)c3cccn3c3cccnc32)cc(OCC)c1OCC | 1540

Entries 9 through 10 from above:
Row | SMILES | cell count [cells]
9 | Cc1cc(C(=O)OC(C)C(=O)Nc2nc(-c3ccccc3)cs2)c(C)o1 (centres undefined) | 1690
10 | Cc1cc(C)nc(NCCO)n1 | 1630

Three entries out of the list, sorted by heavy-atom count, smallest number first:
Row | SMILES | cell count [cells]
37 | CCOc1ccc(C(C)NC(=O)Cc2ccccc2F)cc1OCC (centres undefined) | 1540
14 | Cc1cc(C)n(-c2nc(N(c3ccccc3)c3ccccc3)nc(-n3nc(C)cc3C)n2)n1 | 1250
25 | CCOc1ccc(CCNC(=O)C2CCN(S(=O)(=O)N3CC(C)CC(C)C3)CC2)cc1OCC (centres undefined) | 1550
